Among the data in paper PMC9385627 are binding values, retold here.

Chains of the proteins cited; added tags and fusions are not shown.
UniProt Q03267: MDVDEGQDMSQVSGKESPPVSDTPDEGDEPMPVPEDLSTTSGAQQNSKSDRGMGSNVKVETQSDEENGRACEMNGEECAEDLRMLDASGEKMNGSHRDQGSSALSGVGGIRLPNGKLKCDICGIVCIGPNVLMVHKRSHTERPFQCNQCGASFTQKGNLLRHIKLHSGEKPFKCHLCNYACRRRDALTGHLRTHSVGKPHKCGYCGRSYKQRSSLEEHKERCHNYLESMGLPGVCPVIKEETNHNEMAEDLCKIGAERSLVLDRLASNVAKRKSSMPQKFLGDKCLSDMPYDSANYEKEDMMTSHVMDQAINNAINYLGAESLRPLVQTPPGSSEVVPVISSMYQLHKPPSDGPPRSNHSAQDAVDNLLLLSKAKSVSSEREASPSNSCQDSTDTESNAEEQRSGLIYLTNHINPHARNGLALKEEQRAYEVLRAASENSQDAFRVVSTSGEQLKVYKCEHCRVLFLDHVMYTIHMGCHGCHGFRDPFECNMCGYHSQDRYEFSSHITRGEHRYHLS
UniProt O09106: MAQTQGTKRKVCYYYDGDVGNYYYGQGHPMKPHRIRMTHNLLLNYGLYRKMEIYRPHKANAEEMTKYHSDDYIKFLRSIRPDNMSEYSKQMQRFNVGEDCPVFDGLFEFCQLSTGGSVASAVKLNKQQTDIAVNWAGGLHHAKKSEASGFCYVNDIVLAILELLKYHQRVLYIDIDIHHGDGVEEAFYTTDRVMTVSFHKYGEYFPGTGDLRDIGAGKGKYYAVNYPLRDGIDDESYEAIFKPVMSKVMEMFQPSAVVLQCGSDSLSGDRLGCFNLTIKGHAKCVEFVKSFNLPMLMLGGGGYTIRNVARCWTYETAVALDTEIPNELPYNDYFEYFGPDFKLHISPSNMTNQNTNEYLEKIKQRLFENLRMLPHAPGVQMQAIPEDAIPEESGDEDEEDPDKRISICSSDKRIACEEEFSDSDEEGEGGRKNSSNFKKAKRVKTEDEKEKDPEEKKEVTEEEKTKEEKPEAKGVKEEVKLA

Assay [1] addresses IKZF1, endogenous in RAW 264.7 cells (mouse (endogenous in RAW 264.7)) (UniProt Q03267). The experiment in a line: co-IP; RAW 264.7 cells, groups control, LPS, LPS + PU, LPS + oe-NC, LPS + oe-HDAC1; lysate incubated with anti-IKZF1 antibody or IgG, protein A/G-sepharose; blot for HDAC1 and IKZF1.
Assay [2] addresses IKZF1, overexpressed in 293T cells (mouse) (UniProt Q03267). Briefly: co-IP; 293T cells transfected with oe-NC, oe-HDAC1, oe-IKZF1 or both for 48 h; lysate incubated with anti-IKZF1 antibody or IgG overnight at 4 °C, protein A/G-sepharose; blot for HDAC1 and IKZF1.

These are yes or no findings as the source states them, for the method shown. Binding seen in cells or lysates may run through a third protein. Some entries that bind do so weakly or less than the wild type.

Regarding “histone deacetylase 1 (HDAC1), endogenous in RAW 264.7 cells (from UniProt O09106 1-482)”, in assay [1], the binding result is recorded as “binds”. As for “histone deacetylase 1 (HDAC1), overexpressed in 293T cells (from UniProt O09106 1-482)”, the binding result in assay [2] is on record as “binds”. Take “histone deacetylase 1 (HDAC1), overexpressed in RAW 264.7 cells (from UniProt O09106 1-482)”: in assay [1], the binding entry is reported as “binds”.
